Taken from: PubChem BioAssay AID504774 (Drosophila RNAi Screening Center, 2011)
Aim: 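Genes required for cells to withstand methyl methanesulphonate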 (primary screen). Cell system: Drosophila Kc167 cells. Knock-down reagent: long dsRNA against Drosophila genes, about 0.25 µg dsRNA per well. Duration: about 6 days: 3 days knock-down, then 3 days with or without MMS. Challenge: methyl methanesulphonate 0.004% (w/v) for 3 days after knock-down. Detection: 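ATP-dependent luminescence as a measure of live cells in MMS-exposed wells, quantile normalised within each plate, with replicate values also given as a mean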. Scale: mean viability with MMS: higher = more surviving cells after MMS.
The screen tested about 23,000 reagents; shown is an unselected part of those with a known target gene and a result. 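Values are quantile-normalised luminescence on an arbitrary scale; higher means more cells surviving MMS.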 Further read-outs or replicates are left out here.

For l(2)gd1 [DRSC02773], what was measured?
mean viability with MMS: 3.51e6

What did the screen give for Cyp6u1 [DRSC05015]?
mean viability with MMS: 3.59e6

What is on record for AhcyL2 [DRSC14107]?
mean viability with MMS: 3.68e6

With CG13022 [DRSC09902], how do the results read?
mean viability with MMS: 3.59e6

How did the screen score CG13059 [DRSC09942]?
mean viability with MMS: 3.52e6

What is on record for CG10068 [DRSC12508]?
mean viability with MMS: 3.54e6

What is on record for Dtd [DRSC15362]?
mean viability with MMS: 3.61e6

What is on record for TMEM216 [DRSC16378]?
mean viability with MMS: 3.69e6

Which result is listed for CG2608 [DRSC02709]?
mean viability with MMS: 3.15e6

For CCHa1-R [DRSC06456], how do the results read?
mean viability with MMS: 3.52e6

What is on record for CCHa1-R [DRSC06715]?
mean viability with MMS: 3.63e6

With SdhCL [DRSC16078], what was measured?
mean viability with MMS: 3.46e6

What did the screen give for Hsc70-5 [DRSC07442]?
mean viability with MMS: 3.53e6

Which result is listed for CG13375 [DRSC18621]?
mean viability with MMS: 3.54e6

What is on record for Fas3 [DRSC01638]?
mean viability with MMS: 3.00e6

For Fas3 [DRSC03326], how do the results read?
mean viability with MMS: 3.32e6

Which result is listed for Fas3 [DRSC22776]?
mean viability with MMS: 3.50e6

Which result is listed for Zip102B [DRSC17155]?
mean viability with MMS: 3.69e6

With CG13001 [DRSC19520], what was measured?
mean viability with MMS: 3.57e6

What did the screen give for CG13001 [DRSC22443]?
mean viability with MMS: 3.68e6

With Gyc89Db [DRSC15009], what does the deposit list?
mean viability with MMS: 3.70e6

What did the screen give for Tbc1d8-9 [DRSC11820]?
mean viability with MMS: 3.35e6

For CG15393 (retired record) [DRSC00407], how do the results read?
mean viability with MMS: 3.48e6

For RIOK2 [DRSC14413], what was measured?
mean viability with MMS: 3.43e6

Which result is listed for Cdc5 [DRSC08577]?
mean viability with MMS: 3.06e6

For can [DRSC10664], what does the deposit list?
mean viability with MMS: 1.88e6

For CG1492 [DRSC19605], what was measured?
mean viability with MMS: 3.40e6

For cic [DRSC14276], what does the deposit list?
mean viability with MMS: 3.20e6

With cic [DRSC15708], what does the deposit list?
mean viability with MMS: 3.15e6

How did the screen score cic [DRSC16918]?
mean viability with MMS: 3.40e6

With cic [DRSC21243], how do the results read?
mean viability with MMS: 3.46e6

For cic [DRSC23217], how do the results read?
mean viability with MMS: 3.58e6

For Ndfip [DRSC11201], what does the deposit list?
mean viability with MMS: 3.66e6

For Jon44E [DRSC07216], how do the results read?
mean viability with MMS: 3.38e6

What is on record for CG34251 [DRSC09498]?
mean viability with MMS: 3.53e6

Which result is listed for CG34251 [DRSC09500]?
mean viability with MMS: 3.74e6

Sorted by “mean viability with MMS” (ascending): 2 of the entries above.
CCHa1-R [DRSC06456]: mean viability with MMS = 3.52e6
CCHa1-R [DRSC06715]: mean viability with MMS = 3.63e6
